# Results reported in patent US7285560B2, “Indole derivatives or benzimidazole derivatives for modulating IκB kinase” (Sanofi-Aventis Deutschland GmbH, priority 2002, dated 2007).
# At least one compound was matched to its structure with a doubt left.
# System: protein tyrosine kinase
# Assay: Protein tyrosine kinase assay (Upstate test kit)
# Assay type: biochemical
# Settings: IC50 protein tyrosine kinase relative to IκB kinase; > denotes better than
# Procedure: As examples of the specificities of the IκB kinase inhibitors which had been discovered, their IC50 values were determined in the case of the kinase enzyme protein tyrosine kinase.
# Protein tyrosine kinase activity was determined using the appropriate test kit from Upstate Biotechnologie in accordance with the manufacturer's instructions and at an ATP concentration of 50 μM. As a difference from the manufacturer's method, Multi-Screen plates (Millipore; phosphocellulose MS-PH, cat. MAPHNOB10, or Durapore PVDF, cat. MADVNOB 50), were used, together with the appropriate exhaust system, instead of phospho-cellulose filters. Poly (Glu, Tyr 4:1) (Sigma cat. P0275) was used as the test kit substrate at a test concentration of 1 mg/ml. The plates were then measured in a Wallac MicroBeta scintillation counter. 100 μM of the test substance were used in each case.
# The test substance was tested in a duplicate determination. The IC50 calculations were performed using the GraFit 3.0 software package.
structure (smiles),measurement,value
"CNc1nccc(-c2cc3cc(C(=O)NC(CN(c4ccccc4)c4ncccn4)C(=O)NCCO)ccc3[nH]2)n1 (stereo not shown) [Example 49, N-[1-(2-Hydroxyethylcarbamoyl)-2-(phenylpyrimidin-2-ylamino)ethyl]-2-(2-methylaminopyrimidin-4-yl)-1H-indole-5-carboxamide]",Specificity ratio,>285
